Reference: patent US20160369115A1, “POLARIZING PLATE COMPOSITION, POLARIZING PLATE PROTECTIVE FILM, POLARIZER, POLARIZING PLATE, LIQUID CRYSTAL DISPLAY DEVICE, AND COMPOUND USED IN THE LIQUID CRYSTAL DISPLAY DEVICE” (FUJIFILM Corporation, priority 2014, published 2016)

Columns and labels:
[1] = Bleed-out properties in polarizer (haze evaluation); details: haze of polarizing plate; additive in polarizer, added amount 1.0 per 100 parts by mass of polyvinyl alcohol resin
[2] = Evaluation of durability of polarizing plate, additive in adhesive layer (Example 3); details: added amount 10.0 per 100 parts by mass of the polyvinyl alcohol resin, film thickness 5 μm; for Durability of polarizer: amount of change of orthogonal transmittance (%) 60° C., 95%, 500 hours / Durability of polarizer: amount of change of orthogonal transmittance (%) 60° C., 95%, 1,000 hours / Durability of polarizer: amount of change of orthogonal transmittance (%) 80° C., Dry 500 hours / Durability of polarizer: amount of change of orthogonal transmittance (%) 80° C., Dry, 1,000 hours: 410 nm
[3] = Evaluation of durability of polarizing plate, additive in polarizer (Example 2); details: added amount 1.0 per 100 parts by mass of polyvinyl alcohol resin, 410 nm
[4] = Evaluation of light-fast adhesiveness of polarizing plate protective film with hardcoat layer; details: additive in protective film: Cellulose acylate, 25 μm, added amount 4.0 per 100 parts by mass of film resin; light 96 hours, 60° C., 50% RH
[5] = Durability evaluation of polarizing plate, additive in polarizing plate protective film (Example 1); details: additive in protective film: Cellulose acylate, 25 μm, added amount 4.0 per 100 parts by mass of film resin; 410 nm

[Cl-].[Cl-].[Zn+2] [ZnCl2, reference compound]
Bleed out [1]: A (The haze was less than 0.3%.)
Durability of polarizer: amount of change of degree of polarization (%) 60° C., 95%, 500 hours [2]: B (The amount of change of the degree of polarization before and after the elapse of time was equal to or greater than 2.0% and less than 3.0%.)
Durability of polarizer: amount of change of degree of polarization (%) 60° C., 95%, 1,000 hours [2]: B (The amount of change of the degree of polarization before and after the elapse of time was equal to or greater than 4.0% and less than 6.0%.)
Durability of polarizer: amount of change of degree of polarization (%) 80° C., Dry, 500 hours [2]: A (The amount of change of the degree of polarization before and alter the elapse of time was equal to or greater than 0.05% and less than 1.0%.)
Durability of polarizer: amount of change of degree of polarization (%) 80° C., Dry, 1,000 hours [2]: A (The amount of change of the degree of polarization before and after the elapse of time was equal to or greater than 0.1% and less than 2.0%.)
Durability of polarizer: amount of change of orthogonal transmittance (%) 60° C., 95%, 500 hours [2]: B (The amount of change of the orthogonal transmittance before and after the elapse of time was equal to or greater than 0.4% and less than 0.8%.)
Durability of polarizer: amount of change of orthogonal transmittance (%) 60° C., 95%, 1,000 hours [2]: B (The amount of change of the orthogonal transmittance before and after the elapse of time was equal to or greater than 1.0% and less than 1.6%.)
Durability of polarizer: amount of change of orthogonal transmittance (%) 80° C., Dry 500 hours [2]: A (The amount of change of the orthogonal transmittance before and after the elapse of time was equal to or greater than 0.05% and less than 0.1%.)
Durability of polarizer: amount of change of orthogonal transmittance (%) 80° C., Dry, 1,000 hours [2]: A (The amount of change of the orthogonal transmittance before and after the elapse of time was equal to or greater than 0.1% and less than 0.3%.)
Durability of polarizer: amount of change of degree of polarization (%) 60° C., 95%, 500 hours [3]: B (The amount of change of the orthogonal transmittance before and after the elapse of time was equal to or greater than 2.0% and less than 3.0%.)
Durability of polarizer: amount of change of degree of polarization (%) 60° C., 95%, 1,000 hours [3]: B (The amount of change of the degree of polarization before and after the elapse of time was equal to or greater than 4.0% and less than 6.0%.)
Durability of polarizer: amount of change of degree of polarization (%) 80° C., Dry, 500 hours [3]: A (The amount of change of the degree of polarization before and after the elapse of time was equal to or greater than 0.05% and less than 1.0%.)
Durability of polarizer: amount of change of degree of polarization (%) 80° C., Dry, 1,000 hours [3]: A (The amount of change of the degree of polarization before and after the elapse of time was equal to or greater than 0.1% and less than 2.0%.)
Durability of polarizer: amount of change of orthogonal transmittance (%) 60° C., 95%, 500 hours [3]: B (The amount of change of the orthogonal transmittance before and after the elapse of time was equal to or greater than 0.4% and less than 0.8%.)
Durability of polarizer: amount of change of orthogonal transmittance (%) 60° C., 95%, 1,000 hours [3]: B (The amount of change of the orthogonal transmittance before and after the elapse of time was equal to or greater than 1.0% and less than 1.6%.)
Durability of polarizer: amount of change of orthogonal transmittance (%) 80° C., Dry 500 hours [3]: A (The amount of change of the orthogonal transmittance before and after the elapse of time was equal to or greater than 0.05% and less than 0.1%.)
Durability of polarizer: amount of change of orthogonal transmittance (%) 80° C., Dry, 1,000 hours [3]: A (The amount of change of the orthogonal transmittance before and after the elapse of time was equal to or greater than 0.1% and less than 0.3%.)

CCO[Si](CCCNC(=O)OCCn1c(=O)[nH]c(OC(=O)OC)c(Cc2ccc(S(=O)(=O)[O-])cc2S(=O)(=O)[O-])c1=O)(OCC)OCC.[Na+].[Na+] [Example compound AAP]
Bleed out [1]: A (The haze was less than 0.3%.)
Durability of polarizer: amount of change of degree of polarization (%) 60° C., 95%, 500 hours [2]: A+ (The amount of change of the degree of polarization before and after the elapse of time was less than 0.05%.)
Durability of polarizer: amount of change of degree of polarization (%) 60° C., 95%, 1,000 hours [2]: A+ (The amount of change of the degree of polarization before and after the elapse of time was less than 1.0%.)
Durability of polarizer: amount of change of degree of polarization (%) 80° C., Dry, 500 hours [2]: A+ (The amount of change of the degree of polarization before and after the elapse of time was less than 0.05%.)
Durability of polarizer: amount of change of degree of polarization (%) 80° C., Dry, 1,000 hours [2]: A+ (The amount of change of the degree of polarization before and after the elapse of time was less than 0.1%.)
Durability of polarizer: amount of change of orthogonal transmittance (%) 60° C., 95%, 500 hours [2]: A+ (The amount of change of the orthogonal transmittance before and after the elapse of time was less than 0.1%.)
Durability of polarizer: amount of change of orthogonal transmittance (%) 60° C., 95%, 1,000 hours [2]: A+ (The amount of change of the orthogonal transmittance before and after the elapse of time was less than 0.5%.)
Durability of polarizer: amount of change of orthogonal transmittance (%) 80° C., Dry 500 hours [2]: A+ (The amount of change of the orthogonal transmittance before and after the elapse of time was less than 0.05%.)
Durability of polarizer: amount of change of orthogonal transmittance (%) 80° C., Dry, 1,000 hours [2]: A+ (The amount of change of the orthogonal transmittance before and after the elapse of time was less than 0.1%.)
Durability of polarizer: amount of change of degree of polarization (%) 60° C., 95%, 500 hours [3]: A+ (The amount of change of the degree of polarization before and after the elapse of time was less than 0.05%.)
Durability of polarizer: amount of change of degree of polarization (%) 60° C., 95%, 1,000 hours [3]: A+ (The amount of change of the degree of polarization before and after the elapse of time was less than 1.0%.)
Durability of polarizer: amount of change of degree of polarization (%) 80° C., Dry, 500 hours [3]: A+ (The amount of change of the degree of polarization before and after the elapse of time was less than 0.05%.)
Durability of polarizer: amount of change of degree of polarization (%) 80° C., Dry, 1,000 hours [3]: A+ (The amount of change of the degree of polarization before and after the elapse of time was less than 0.1%.)
Durability of polarizer: amount of change of orthogonal transmittance (%) 60° C., 95%, 500 hours [3]: A+ (The amount of change of the orthogonal transmittance before and after the elapse of time was less than 0.1%.)
Durability of polarizer: amount of change of orthogonal transmittance (%) 60° C., 95%, 1,000 hours [3]: A+ (The amount of change of the orthogonal transmittance before and after the elapse of time was less than 0.5%.)
Durability of polarizer: amount of change of orthogonal transmittance (%) 80° C., Dry 500 hours [3]: A+ (The amount of change of the orthogonal transmittance before and after the elapse of time was less than 0.05%.)
Durability of polarizer: amount of change of orthogonal transmittance (%) 80° C., Dry, 1,000 hours [3]: A+ (The amount of change of the orthogonal transmittance before and after the elapse of time was less than 0.1%.)

COC(=O)Oc1c(Cc2ccc(B3OC(C)(C)C(C)(C)O3)cc2)c(=O)n(-c2ccccc2)c(=O)n1Cc1ccccc1 [Example compound AAM]
Light-fast adhesiveness [4]: A (The number of cells peeled off among 100 cells was equal to or less than 10.)
Durability of polarizer: amount of change of orthogonal transmittance (%) 60° C., 95%, 500 hours [5]: A+ (The amount of change of the orthogonal transmittance before and after the elapse of time was less than 0.4%.)
Durability of polarizer: amount of change of orthogonal transmittance (%) 60° C., 95%, 1,000 hours [5]: A+ (The amount of change of the orthogonal transmittance before and after the elapse of time was less than 1.0%.)
Durability of polarizer: amount of change of orthogonal transmittance (%) 80° C., Dry 500 hours [5]: A+ (The amount of change of the orthogonal transmittance before and after the elapse of time was less than 0.1%.)
Durability of polarizer: amount of change of orthogonal transmittance (%) 80° C., Dry, 1,000 hours [5]: A+ (The amount of change of the orthogonal transmittance before and after the elapse of time was less than 0.5%.)

CC(C)(C)OC(=O)Oc1c(Cc2ccccc2)c(=O)n(-c2ccccc2)c(=O)n1Cc1ccccc1 [Example compound E]
Light-fast adhesiveness [4]: A (The number of cells peeled off among 100 cells was equal to or less than 10.)
Durability of polarizer: amount of change of orthogonal transmittance (%) 60° C., 95%, 500 hours [5]: A+ (The amount of change of the orthogonal transmittance before and after the elapse of time was less than 0.4%.)
Durability of polarizer: amount of change of orthogonal transmittance (%) 60° C., 95%, 1,000 hours [5]: A+ (The amount of change of the orthogonal transmittance before and after the elapse of time was less than 1.0%.)
Durability of polarizer: amount of change of orthogonal transmittance (%) 80° C., Dry 500 hours [5]: A+ (The amount of change of the orthogonal transmittance before and after the elapse of time was less than 0.1%.)
Durability of polarizer: amount of change of orthogonal transmittance (%) 80° C., Dry, 1,000 hours [5]: A+ (The amount of change of the orthogonal transmittance before and after the elapse of time was less than 0.5%.)

COC(=O)Oc1c(Cc2ccc(F)c(F)c2)c(=O)n(-c2ccccc2)c(=O)n1Cc1ccccc1 [Example compound AAQ]
Light-fast adhesiveness [4]: A (The number of cells peeled off among 100 cells was equal to or less than 10.)
Durability of polarizer: amount of change of orthogonal transmittance (%) 60° C., 95%, 500 hours [5]: A (The amount of change of the orthogonal transmittance before and after the elapse of time was equal to or greater than 0.4% and less than 0.6%.)
Durability of polarizer: amount of change of orthogonal transmittance (%) 60° C., 95%, 1,000 hours [5]: A (The amount of change of the orthogonal transmittance before and after the elapse of time was equal to or greater than 1.0% and less than 1.4%.)
Durability of polarizer: amount of change of orthogonal transmittance (%) 80° C., Dry 500 hours [5]: A (The amount of change of the orthogonal transmittance before and after the elapse of time was equal to or greater than 0.1% and less than 0.3%.)
Durability of polarizer: amount of change of orthogonal transmittance (%) 80° C., Dry, 1,000 hours [5]: A (The amount of change of the orthogonal transmittance before and after the elapse of time was equal to or greater than 0.5% and less than 0.8%.)

CCOC(=O)Oc1c(Cc2ccccc2)c(=O)n(-c2ccccc2)c(=O)n1-c1ccccc1 [Example compound C]
Light-fast adhesiveness [4]: A (The number of cells peeled off among 100 cells was equal to or less than 10.)
Durability of polarizer: amount of change of orthogonal transmittance (%) 60° C., 95%, 500 hours [5]: A+ (The amount of change of the orthogonal transmittance before and after the elapse of time was less than 0.4%.)
Durability of polarizer: amount of change of orthogonal transmittance (%) 60° C., 95%, 1,000 hours [5]: A+ (The amount of change of the orthogonal transmittance before and after the elapse of time was less than 1.0%.)
Durability of polarizer: amount of change of orthogonal transmittance (%) 80° C., Dry 500 hours [5]: A+ (The amount of change of the orthogonal transmittance before and after the elapse of time was less than 0.1%.)
Durability of polarizer: amount of change of orthogonal transmittance (%) 80° C., Dry, 1,000 hours [5]: A+ (The amount of change of the orthogonal transmittance before and after the elapse of time was less than 0.5%.)

Some compounds share one wording; it may come from a single statement.
